Experimental data taken from the supplement of paper PMC10849652.
The other results are listed elsewhere or left out.

Amino acid sequences for entries named in this document (tags omitted). A change or cut given only in a name is not applied to a line headed by its entry.
UniProt Q9H0R8, whole entry, looked up: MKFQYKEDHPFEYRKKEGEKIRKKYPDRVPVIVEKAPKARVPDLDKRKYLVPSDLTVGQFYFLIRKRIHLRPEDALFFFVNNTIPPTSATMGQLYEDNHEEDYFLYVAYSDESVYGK
UniProt Q9UET6: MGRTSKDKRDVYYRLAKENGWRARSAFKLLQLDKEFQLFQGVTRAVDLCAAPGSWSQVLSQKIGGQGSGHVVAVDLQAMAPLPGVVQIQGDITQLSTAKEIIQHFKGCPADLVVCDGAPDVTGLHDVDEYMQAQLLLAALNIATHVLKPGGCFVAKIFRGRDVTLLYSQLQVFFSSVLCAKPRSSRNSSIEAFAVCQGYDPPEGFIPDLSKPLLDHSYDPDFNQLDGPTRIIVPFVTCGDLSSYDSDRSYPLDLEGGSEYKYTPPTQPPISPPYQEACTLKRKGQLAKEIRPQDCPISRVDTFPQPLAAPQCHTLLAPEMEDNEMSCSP
UniProt Q06546: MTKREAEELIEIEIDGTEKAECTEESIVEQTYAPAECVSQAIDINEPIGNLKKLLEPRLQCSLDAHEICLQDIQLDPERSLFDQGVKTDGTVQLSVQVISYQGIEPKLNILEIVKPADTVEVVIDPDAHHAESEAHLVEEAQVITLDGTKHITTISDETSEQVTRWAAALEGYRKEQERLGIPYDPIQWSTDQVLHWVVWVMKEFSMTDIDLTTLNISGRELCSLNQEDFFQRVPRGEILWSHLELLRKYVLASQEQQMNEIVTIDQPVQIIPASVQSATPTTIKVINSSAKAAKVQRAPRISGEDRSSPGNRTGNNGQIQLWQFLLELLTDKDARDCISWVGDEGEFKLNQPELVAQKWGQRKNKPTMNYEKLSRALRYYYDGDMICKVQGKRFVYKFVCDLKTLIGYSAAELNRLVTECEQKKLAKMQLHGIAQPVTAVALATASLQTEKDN
UniProt Q16595: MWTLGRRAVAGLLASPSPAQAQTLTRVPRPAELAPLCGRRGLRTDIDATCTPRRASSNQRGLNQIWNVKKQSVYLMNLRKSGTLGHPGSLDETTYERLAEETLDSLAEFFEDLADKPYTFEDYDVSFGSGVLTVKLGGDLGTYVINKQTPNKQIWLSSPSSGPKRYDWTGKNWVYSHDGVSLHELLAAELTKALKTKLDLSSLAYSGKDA
UniProt P57678: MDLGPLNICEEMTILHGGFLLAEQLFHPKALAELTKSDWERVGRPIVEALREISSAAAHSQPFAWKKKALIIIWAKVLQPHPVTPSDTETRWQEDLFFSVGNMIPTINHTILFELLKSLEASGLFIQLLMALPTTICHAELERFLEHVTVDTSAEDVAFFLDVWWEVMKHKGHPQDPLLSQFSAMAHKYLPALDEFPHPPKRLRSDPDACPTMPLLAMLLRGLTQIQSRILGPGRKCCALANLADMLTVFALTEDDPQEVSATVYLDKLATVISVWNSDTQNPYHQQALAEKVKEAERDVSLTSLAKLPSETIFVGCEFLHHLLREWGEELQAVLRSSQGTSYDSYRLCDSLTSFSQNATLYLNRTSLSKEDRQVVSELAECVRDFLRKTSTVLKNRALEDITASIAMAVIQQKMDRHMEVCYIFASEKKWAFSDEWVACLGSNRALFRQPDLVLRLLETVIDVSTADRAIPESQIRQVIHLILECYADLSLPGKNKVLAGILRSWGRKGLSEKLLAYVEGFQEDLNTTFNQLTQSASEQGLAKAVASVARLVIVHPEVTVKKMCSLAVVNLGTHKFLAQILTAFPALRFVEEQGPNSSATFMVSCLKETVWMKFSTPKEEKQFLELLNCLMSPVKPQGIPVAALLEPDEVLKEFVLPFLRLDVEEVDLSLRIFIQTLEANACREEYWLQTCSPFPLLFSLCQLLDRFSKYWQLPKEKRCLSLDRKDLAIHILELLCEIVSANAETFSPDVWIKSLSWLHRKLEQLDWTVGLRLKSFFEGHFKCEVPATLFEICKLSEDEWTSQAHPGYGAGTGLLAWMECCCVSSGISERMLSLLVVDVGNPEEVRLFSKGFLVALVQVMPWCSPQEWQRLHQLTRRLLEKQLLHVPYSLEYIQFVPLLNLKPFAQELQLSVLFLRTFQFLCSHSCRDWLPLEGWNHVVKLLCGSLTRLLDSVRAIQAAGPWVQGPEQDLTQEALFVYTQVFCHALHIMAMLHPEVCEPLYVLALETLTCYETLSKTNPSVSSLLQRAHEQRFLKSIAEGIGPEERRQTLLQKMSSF
UniProt P0CL80: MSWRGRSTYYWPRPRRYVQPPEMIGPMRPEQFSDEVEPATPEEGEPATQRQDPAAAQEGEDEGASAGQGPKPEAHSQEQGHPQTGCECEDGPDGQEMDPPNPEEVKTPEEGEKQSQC
UniProt P38435: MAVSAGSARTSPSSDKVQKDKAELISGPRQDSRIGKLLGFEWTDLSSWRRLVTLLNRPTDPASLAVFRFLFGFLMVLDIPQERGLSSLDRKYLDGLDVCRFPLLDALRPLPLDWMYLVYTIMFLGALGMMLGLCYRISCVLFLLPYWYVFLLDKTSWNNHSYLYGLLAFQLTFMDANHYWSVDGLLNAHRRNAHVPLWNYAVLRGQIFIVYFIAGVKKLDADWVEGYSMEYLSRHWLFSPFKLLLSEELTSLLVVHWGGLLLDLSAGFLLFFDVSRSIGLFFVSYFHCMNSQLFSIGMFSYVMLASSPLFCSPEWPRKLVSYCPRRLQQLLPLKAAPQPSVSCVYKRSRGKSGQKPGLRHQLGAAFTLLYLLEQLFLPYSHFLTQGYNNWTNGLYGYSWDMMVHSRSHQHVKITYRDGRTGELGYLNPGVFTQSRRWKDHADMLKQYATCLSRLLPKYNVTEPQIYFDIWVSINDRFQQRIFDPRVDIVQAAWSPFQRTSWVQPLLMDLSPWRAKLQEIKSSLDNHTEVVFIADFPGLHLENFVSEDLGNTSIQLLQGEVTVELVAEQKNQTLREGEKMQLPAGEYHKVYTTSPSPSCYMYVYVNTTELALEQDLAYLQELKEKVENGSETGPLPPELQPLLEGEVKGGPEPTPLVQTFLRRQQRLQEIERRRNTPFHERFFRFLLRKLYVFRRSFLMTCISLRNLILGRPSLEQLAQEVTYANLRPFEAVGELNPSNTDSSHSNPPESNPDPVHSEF
UniProt Q9UN86: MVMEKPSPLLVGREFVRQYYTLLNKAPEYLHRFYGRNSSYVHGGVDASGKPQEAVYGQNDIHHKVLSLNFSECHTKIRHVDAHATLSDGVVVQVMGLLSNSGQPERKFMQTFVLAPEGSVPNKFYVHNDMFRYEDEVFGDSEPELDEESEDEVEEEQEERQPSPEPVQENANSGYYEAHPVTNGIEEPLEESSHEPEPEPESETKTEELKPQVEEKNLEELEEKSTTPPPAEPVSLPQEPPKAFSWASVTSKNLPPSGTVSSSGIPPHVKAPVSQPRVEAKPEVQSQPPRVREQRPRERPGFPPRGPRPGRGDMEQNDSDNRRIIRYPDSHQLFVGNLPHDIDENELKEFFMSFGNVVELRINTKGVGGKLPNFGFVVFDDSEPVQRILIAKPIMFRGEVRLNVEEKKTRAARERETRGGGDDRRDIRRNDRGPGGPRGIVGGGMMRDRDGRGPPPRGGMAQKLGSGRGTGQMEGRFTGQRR
UniProt Q7Z7M9: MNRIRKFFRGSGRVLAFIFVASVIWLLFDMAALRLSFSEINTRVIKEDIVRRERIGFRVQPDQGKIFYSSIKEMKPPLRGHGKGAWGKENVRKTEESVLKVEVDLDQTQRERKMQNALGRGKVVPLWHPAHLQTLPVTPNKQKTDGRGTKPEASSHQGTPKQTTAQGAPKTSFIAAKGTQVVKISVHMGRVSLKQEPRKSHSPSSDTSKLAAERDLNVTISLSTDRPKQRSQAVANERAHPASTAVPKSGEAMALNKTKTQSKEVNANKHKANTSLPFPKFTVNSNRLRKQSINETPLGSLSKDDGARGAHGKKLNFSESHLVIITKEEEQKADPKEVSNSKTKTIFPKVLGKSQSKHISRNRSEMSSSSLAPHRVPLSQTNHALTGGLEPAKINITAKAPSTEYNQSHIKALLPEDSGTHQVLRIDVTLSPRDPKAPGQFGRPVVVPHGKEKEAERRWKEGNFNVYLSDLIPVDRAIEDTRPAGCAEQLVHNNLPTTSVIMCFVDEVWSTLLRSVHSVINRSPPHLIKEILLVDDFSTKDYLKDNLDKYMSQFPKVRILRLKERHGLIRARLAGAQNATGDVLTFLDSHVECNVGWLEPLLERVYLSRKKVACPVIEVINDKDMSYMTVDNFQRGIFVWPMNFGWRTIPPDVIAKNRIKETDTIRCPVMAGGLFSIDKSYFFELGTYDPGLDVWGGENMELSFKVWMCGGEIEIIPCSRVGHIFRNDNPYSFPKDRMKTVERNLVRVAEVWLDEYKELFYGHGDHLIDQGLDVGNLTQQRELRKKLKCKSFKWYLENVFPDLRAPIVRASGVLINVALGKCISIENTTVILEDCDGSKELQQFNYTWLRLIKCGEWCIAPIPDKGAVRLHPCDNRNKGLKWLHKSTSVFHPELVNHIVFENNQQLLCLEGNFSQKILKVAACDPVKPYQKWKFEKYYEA
UniProt Q10471: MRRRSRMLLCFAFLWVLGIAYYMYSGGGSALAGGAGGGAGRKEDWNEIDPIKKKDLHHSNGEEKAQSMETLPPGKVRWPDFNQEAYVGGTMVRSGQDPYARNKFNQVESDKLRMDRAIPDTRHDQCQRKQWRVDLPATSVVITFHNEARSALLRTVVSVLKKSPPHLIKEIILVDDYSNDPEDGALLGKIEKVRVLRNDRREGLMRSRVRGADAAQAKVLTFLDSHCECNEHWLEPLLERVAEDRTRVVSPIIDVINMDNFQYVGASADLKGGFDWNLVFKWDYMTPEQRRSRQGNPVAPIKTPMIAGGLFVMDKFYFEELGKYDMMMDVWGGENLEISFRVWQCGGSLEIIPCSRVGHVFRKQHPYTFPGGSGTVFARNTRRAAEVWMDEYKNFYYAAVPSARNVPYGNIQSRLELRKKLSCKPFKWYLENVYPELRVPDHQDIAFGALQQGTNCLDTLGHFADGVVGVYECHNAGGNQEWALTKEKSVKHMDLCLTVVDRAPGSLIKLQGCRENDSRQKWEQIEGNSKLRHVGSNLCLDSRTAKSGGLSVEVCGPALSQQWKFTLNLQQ
UniProt Q8TEQ6: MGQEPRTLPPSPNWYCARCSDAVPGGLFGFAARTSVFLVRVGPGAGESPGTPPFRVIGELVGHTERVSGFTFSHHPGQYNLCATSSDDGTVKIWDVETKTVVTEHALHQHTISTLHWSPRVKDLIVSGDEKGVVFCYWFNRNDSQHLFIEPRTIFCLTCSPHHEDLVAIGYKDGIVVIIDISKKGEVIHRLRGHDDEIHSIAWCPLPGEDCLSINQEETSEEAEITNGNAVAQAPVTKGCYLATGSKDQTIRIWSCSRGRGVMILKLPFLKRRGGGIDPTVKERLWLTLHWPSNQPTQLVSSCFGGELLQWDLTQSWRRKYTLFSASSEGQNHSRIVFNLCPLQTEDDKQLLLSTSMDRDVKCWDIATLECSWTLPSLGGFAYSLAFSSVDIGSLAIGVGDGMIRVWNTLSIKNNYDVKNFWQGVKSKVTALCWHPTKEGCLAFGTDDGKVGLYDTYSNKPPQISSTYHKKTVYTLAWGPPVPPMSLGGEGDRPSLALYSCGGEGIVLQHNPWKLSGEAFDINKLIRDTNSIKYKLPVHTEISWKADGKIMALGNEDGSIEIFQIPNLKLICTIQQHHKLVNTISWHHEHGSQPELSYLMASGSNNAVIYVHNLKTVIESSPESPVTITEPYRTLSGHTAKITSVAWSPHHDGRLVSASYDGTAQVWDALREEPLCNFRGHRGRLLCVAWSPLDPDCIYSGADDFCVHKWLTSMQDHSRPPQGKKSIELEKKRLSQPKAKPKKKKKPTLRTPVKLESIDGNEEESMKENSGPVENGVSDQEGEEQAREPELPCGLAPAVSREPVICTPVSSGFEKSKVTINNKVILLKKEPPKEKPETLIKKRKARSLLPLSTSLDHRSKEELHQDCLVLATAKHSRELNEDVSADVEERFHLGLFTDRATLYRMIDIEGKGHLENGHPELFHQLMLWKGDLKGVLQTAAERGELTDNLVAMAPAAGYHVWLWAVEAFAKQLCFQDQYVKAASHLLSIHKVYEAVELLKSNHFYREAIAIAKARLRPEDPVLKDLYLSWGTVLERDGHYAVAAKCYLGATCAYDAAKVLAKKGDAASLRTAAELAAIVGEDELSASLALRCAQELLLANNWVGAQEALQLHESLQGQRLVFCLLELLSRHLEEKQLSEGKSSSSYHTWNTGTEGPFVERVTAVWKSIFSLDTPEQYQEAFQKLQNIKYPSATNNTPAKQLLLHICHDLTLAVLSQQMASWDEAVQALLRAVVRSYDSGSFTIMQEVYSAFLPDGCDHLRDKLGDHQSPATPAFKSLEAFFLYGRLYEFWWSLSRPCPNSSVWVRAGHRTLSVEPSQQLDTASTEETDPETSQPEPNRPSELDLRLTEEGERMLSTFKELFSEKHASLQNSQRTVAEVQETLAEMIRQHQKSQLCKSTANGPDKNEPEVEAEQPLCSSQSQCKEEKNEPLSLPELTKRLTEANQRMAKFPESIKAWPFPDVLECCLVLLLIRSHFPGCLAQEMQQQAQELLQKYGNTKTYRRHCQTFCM

Assays:
Assay in all cases: log2 fold change, soluble protein after heating vs DMSO (PISA); higher = thermal stabilisation; K562 cells, 10 uM, 30 min; active = over 0.2 and 3.5 SD of the protein, either way, in both replicates (recomputed)
erlotinib = compound: C#Cc1cccc(Nc2ncnc3cc(OCCOC)c(OCCOC)cc23)c1 [erlotinib]
Summary of the method: (§1)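 K562 cells at 2×10^6 cells/mL were exposed to 10 μM compound for 30 min, then aliquots were heated for 3 min across 48°C-58°C, pooled, and extracted in PBS containing 0.5% NP-40 at 4°C. The supernatant after 21,000xg for 90 min was taken as soluble protein and measured by TMTpro 16plex LC-MS/MS with channel sums equalised. Thermal stability is reported relative to control samples, with values from duplicates. Fold changes are given on a log2 scale.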

[1] = compound: C/C(=N\NC(=O)C1=CC(=CC=C1)S(=O)(=O)N2CCOCC2)/C3=C(C=CC(=C3)Cl)O
Summary of the method: as §1

[2] = compound: C1=CC(=C(C=C1Cl)C2=NC3=NC=CN=C3C(=N2)NC4=CC=NC=C4)F
Summary of the method: as §1

[3] = compound: C1=CC(=CC=C1C2=NC3=C(N2)C=C(C=C3)C(=O)N)OC4=CC=C(C=C4)Cl
Summary of the method: as §1

[4] = compound: C1=CC2=C(C=CC(=C2)/C=C\3/C(=O)NC(=NCC4=CC=CS4)S3)N=C1
Summary of the method: as §1

[5] = compound: C1=CC2=NC=CN=C2C=C1/C=C/3\C(=O)NC(=O)S3
Summary of the method: as §1

[6] = compound: C1=CC=C(C=C1)C2=NC(=C(N2)C3=CC=NC=C3)C4=CC(=C(C=C4)Cl)O
Summary of the method: as §1

[7] = compound: C1=CC=C2C(=C1)C3=NNC4=CC=CC(=C43)C2=O
Summary of the method: as §1

[8] = compound: C1CCN(C1)C(=O)NC2=CC=CC(=C2)NC3=NC=C(C(=N3)NCCC4=CN=CN4)Br
Summary of the method: as §1

[9] = compound: C1CN(CCC1(CC2=CC=C(C=C2)Cl)N)C3=NC=NC4=C3C=CN4
Summary of the method: as §1

Measured: log2 fold change

GABARAPL1 isoform 2 (UniProt Q9H0R8)
inactive: erlotinib 0.071 | [1] -0.012 | [2] -0.023 | [3] -0.029 | [4] 0.074 | [5] -0.033 | [6] -0.001 | [7] 0.02 | [8] -0.02 | [9] 0.016

FUBP1 (UniProt Q96AE4)
inactive: erlotinib -0.029 | [1] -0.172 | [2] 0.042 | [3] 0.116 | [4] -0.072 | [5] 0.144 | [6] 0.088 | [7] 0.063 | [8] 0.004 | [9] 0.136

FTSJ1 (UniProt Q9UET6)
inactive: erlotinib 0.032 | [1] 0.032 | [2] -0.059 | [3] 0.127 | [4] -0.018 | [5] 0.006 | [6] 0.036 | [7] -0.003 | [8] 0.055 | [9] -0.093

FUT11 (UniProt Q495W5)
inactive: erlotinib 0.018 | [1] 0.1 | [2] 0.009 | [3] 0.04 | [4] -0.175 | [5] -0.022 | [6] 0.008 | [7] -0.047 | [8] -0.132 | [9] 0.097

GALK1 isoform 2 (UniProt P51570)
inactive: erlotinib 0.002 | [1] 0.082 | [2] 0.158 | [3] -0.023 | [4] -0.08 | [5] 0.016 | [6] 0.07 | [7] 0.055 | [8] -0.094 | [9] 0.076

FOXK1 (UniProt P85037)
inactive: erlotinib 0.113 | [1] 0 | [2] 0.054 | [3] -0.307 | [4] 0.425 | [5] 0.355 | [6] -0.075 | [7] 0.61 | [8] 0.394 | [9] 0.352

GATAD2A isoform 3 (UniProt Q86YP4)
inactive: erlotinib 0.02 | [1] 0.03 | [2] 0.033 | [3] -0.013 | [4] 0.034 | [5] -0.021 | [6] 0.095 | [7] -0.032 | [8] -0.068 | [9] -0.041

GALNT1 (UniProt Q10472)
inactive: erlotinib -0.001 | [1] -0.014 | [2] -0.069 | [3] 0.022 | [4] 0.031 | [5] 0.006 | [6] 0.06 | [7] -0.003 | [8] 0.004 | [9] 0.06

GALNT11 (UniProt Q8NCW6)
inactive: erlotinib 0.088 | [1] -0.019 | [2] 0.033 | [3] -0.009 | [4] 0.122 | [5] 0.118 | [6] -0.034 | [7] 0.043 | [8] -0.025 | [9] 0.014

GAGE5 (UniProt Q13069)
inactive: erlotinib 0.061 | [1] -0.115 | [2] 0.076 | [3] -0.121 | [4] 0.022 | [5] 0.031 | [6] -0.047 | [7] -0.028 | [8] 0.01 | [9] -0.017

GABPA (UniProt Q06546)
inactive: erlotinib 0.07 | [1] 0.121 | [2] 0.014 | [3] -0.042 | [4] 0.083 | [5] -0.055 | [6] 0.049 | [7] 0.025 | [8] -0.028 | [9] 0.011

FYB1 isoform 3 (UniProt O15117)
inactive: erlotinib 0.019 | [1] 0.032 | [2] -0.02 | [3] -0.01 | [4] 0.057 | [5] 0.006 | [6] 0.014 | [7] -0.08 | [8] -0.041 | [9] 0

FXN (UniProt Q16595)
inactive: erlotinib 0 | [1] 0.027 | [2] 0.023 | [3] -0.033 | [4] 0.057 | [5] 0.024 | [6] 0.13 | [7] 0.033 | [8] -0.03 | [9] -0.047

GHDC (UniProt Q8N2G8)
inactive: erlotinib 0.062 | [1] 0.046 | [2] -0.002 | [3] 0.013 | [4] 0.011 | [5] 0.003 | [6] -0.021 | [7] -0.008 | [8] -0.009 | [9] 0.06

GALT (UniProt P07902)
inactive: erlotinib 0.008 | [1] 0.023 | [2] -0.079 | [3] -0.037 | [4] 0.049 | [5] 0.043 | [6] 0.048 | [7] -0.068 | [8] -0.107 | [9] 0.005

GAB1 isoform 2 (UniProt Q13480)
inactive: erlotinib 0.207 | [1] -0.029 | [2] -0.068 | [3] 0.04 | [4] 0.05 | [5] -0.044 | [6] -0.009 | [7] -0.14 | [8] -0.075 | [9] 0.03

GCC2 (UniProt Q8IWJ2)
inactive: erlotinib -0.062 | [1] 0 | [2] -0.155 | [3] -0.017 | [4] -0.076 | [5] 0.034 | [6] -0.032 | [7] -0.021 | [8] -0.054 | [9] -0.154

GEMIN4 (UniProt P57678)
inactive: erlotinib 0.084 | [1] -0.163 | [2] -0.522 | [3] -0.019 | [4] -0.152 | [5] -0.034 | [6] -0.009 | [7] 0.058 | [8] 0.011 | [9] -0.322

GART (UniProt P22102)
inactive: erlotinib 0.064 | [1] 0.093 | [2] 0.034 | [3] -0.032 | [4] 0.074 | [5] -0.025 | [6] 0.118 | [7] 0.043 | [8] 0.003 | [9] -0.064

GAGE12F (UniProt P0CL80)
inactive: erlotinib -0.056 | [1] -0.061 | [2] 0.017 | [3] -0.035 | [4] 0.08 | [5] 0.025 | [6] -0.007 | [7] 0.011 | [8] -0.088 | [9] 0.052

GCLC (UniProt P48506)
inactive: erlotinib 0.031 | [1] 0.037 | [2] 0.057 | [3] 0.033 | [4] 0.017 | [5] -0.031 | [6] -0.025 | [7] -0.003 | [8] 0.035 | [9] 0.05

GGCX (UniProt P38435)
inactive: erlotinib 0.064 | [1] 0.009 | [2] 0.186 | [3] -0.011 | [4] 0.024 | [5] -0.067 | [6] 0.138 | [7] 0.112 | [8] 0.044 | [9] 0.008

Random excerpt: two records from the list
GAGE12F (UniProt P0CL80)
inactive: erlotinib -0.056 | [1] -0.061 | [2] 0.017 | [3] -0.035 | [4] 0.08 | [5] 0.025 | [6] -0.007 | [7] 0.011 | [8] -0.088 | [9] 0.052

GGCX (UniProt P38435)
inactive: erlotinib 0.064 | [1] 0.009 | [2] 0.186 | [3] -0.011 | [4] 0.024 | [5] -0.067 | [6] 0.138 | [7] 0.112 | [8] 0.044 | [9] 0.008

The listing continues.

GALE (UniProt Q14376)
inactive: erlotinib 0.049 | [1] 0.074 | [2] 0.087 | [3] 0.087 | [4] 0.03 | [5] -0.137 | [6] 0.013 | [7] 0.012 | [8] 0.013 | [9] 0.019

G3BP2 (UniProt Q9UN86)
inactive: erlotinib -0.089 | [1] -0.025 | [2] -0.301 | [3] 0.117 | [4] -0.043 | [5] 0.033 | [6] -0.135 | [7] -0.042 | [8] 0.106 | [9] -0.122

GALNT5 (UniProt Q7Z7M9)
inactive: erlotinib 0.026 | [1] -0.009 | [2] 0.031 | [3] -0.042 | [4] 0.032 | [5] -0.006 | [6] 0.015 | [7] 0.026 | [8] -0.011 | [9] 0.018

GALNT2 (UniProt Q10471)
inactive: erlotinib -0.052 | [1] 0.043 | [2] 0.021 | [3] 0 | [4] 0.009 | [5] 0.022 | [6] 0.028 | [7] 0.046 | [8] 0.009 | [9] 0.042

GBA (UniProt P04062)
inactive: erlotinib -0.028 | [1] 0.156 | [2] -0.005 | [3] 0.021 | [4] -0.198 | [5] 0.017 | [6] 0.008 | [7] -0.023 | [8] -0.039 | [9] 0.018

GCLM (UniProt P48507)
inactive: erlotinib -0.054 | [1] 0.199 | [2] 0.014 | [3] -0.019 | [4] -0.078 | [5] 0.088 | [6] -0.006 | [7] 0.064 | [8] -0.008 | [9] -0.035

GDI1 (UniProt P31150)
inactive: erlotinib -0.009 | [1] 0.025 | [2] 0.03 | [3] 0.014 | [4] 0.007 | [5] 0.007 | [6] -0.021 | [7] -0.001 | [8] 0.015 | [9] 0.008

GEMIN5 (UniProt Q8TEQ6)
inactive: erlotinib -0.007 | [1] 0.066 | [2] -0.049 | [3] 0.023 | [4] 0.037 | [5] 0.045 | [6] 0.01 | [7] 0.01 | [8] 0.015 | [9] 0.017
